Data: PubChem BioAssay AID2517 (National Center for Advancing Translational Sciences (NCATS), 2010)
Out of some 350,000 compounds screened, about 1,200 (0.34%) were called active. The shares of active, inactive and inconclusive entries below differ from those in the screen. Calls come from the whole dose curve; as a rule, active = well fitted inhibition curve with a large enough effect; inconclusive = small, poorly fitted or top-dose-only effect; inactive = no such curve, though single readings can be large or run the other way. Potencies of inconclusive entries are doubtful fits and often do not repeat.

By UniProt entry, the sequences of proteins in these tests, tags left out.
UniProt P27695, whole entry, looked up: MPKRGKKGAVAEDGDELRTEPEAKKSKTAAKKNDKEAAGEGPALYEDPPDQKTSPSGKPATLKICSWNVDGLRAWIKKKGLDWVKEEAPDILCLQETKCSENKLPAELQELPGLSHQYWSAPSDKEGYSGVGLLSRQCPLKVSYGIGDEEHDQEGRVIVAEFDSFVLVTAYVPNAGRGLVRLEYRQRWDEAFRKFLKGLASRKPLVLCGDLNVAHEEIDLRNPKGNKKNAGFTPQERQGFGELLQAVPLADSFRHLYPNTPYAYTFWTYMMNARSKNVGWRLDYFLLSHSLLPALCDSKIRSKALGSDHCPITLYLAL

Each molecule was assayed against DNA repair nuclease/redox regulator APEX1 (Homo sapiens) (UniProt P27695) (assay: qHTS Assay for Inhibitors of the Human Apurinic/apyrimidinic Endonuclease 1 (APE1)). Details: recombinant APE1, TAMRA/BHQ-2 abasic DNA cleavage fluorescence; activity change, negative = inhibition: at 65.8 µM (top of the series).
Summary of the method: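 Substrate: short duplex with […] THF abasic site, 5'-TAMRA and 3'-BHQ-2, 50 nM final. APE1 at 0.75 nM, preincubated 15 min RT with compound. Fluorescence increase from first to third read measured activity.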
Note: nearly all actives have a fitted effect of over 55% in size.
Potency is the fitted concentration of half-maximal effect.
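Throughout, for activity change, negative = inhibition: plate controls were vehicle for no effect and reference inhibitor for full effect.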

| Structure (SMILES) | Potency | activity change, negative = inhibition |
| --- | --- | --- |
| COc1ccc2c(c1)OC[C@H]1[C@H]2N2C(=O)CN(C)C(=O)[C@@]2(C)[C@H]1c1ccccc1 | inconclusive: 29.9 µM [inhibitor, single point] |  |
| COc1ccc2c(c1)C(=O)[C@@H](OC(=O)N[C@H](C)C1CCCCC1)[C@H](c1ccc(OC)c(Br)c1)O2 | inactive |  |
| COc1ccccc1/C=N/NC(=O)COCC(=O)N/N=C/c1ccccc1OC | inconclusive: 31.6 µM [inhibitor, partial curve] |  |
| CCOC(=O)c1cccc(-n2c(C)nc3ccccc3c2=O)c1 | inactive |  |
| O=C(CCN1C(=O)/C(=C/c2ccc3c(c2)OCO3)SC1=S)Nc1ccc(C(=O)O)cc1 | inconclusive: 23.8 µM [inhibitor, single point] |  |
| CCOc1ncccc1C(=O)OC(C)C(=O)Nc1ccc(CC)cc1 (configuration not stated) | inconclusive: 0.0398 µM [inhibitor, full curve, poor fit] |  |
| CCN(CC)c1ccc(C=C2C(=O)OC3(CCCC3)OC2=O)cc1 | inactive |  |
| Cc1cc2c(c(=O)o1)C1O[C@](c3ccsc3)(Cc3cc(C#N)ccc31)O2 | inconclusive: 3.44 µM [inhibitor, single point] |  |
| CCOc1cccc(C(=O)Nc2ccc3[nH]ncc3c2)c1 | inactive |  |
| CCOC(=O)c1c(CSc2ccccc2)n(C)c2cc(Br)c(OCC(O)CNC(CO)(CO)CO)cc12 (configuration not stated) | inconclusive: 39.8 µM [inhibitor, single point] |  |
| CC(C)CC(=O)NCCc1ccncc1 | inconclusive: 39.8 µM [inhibitor, single point] |  |
| O=c1[nH]c(CN2CCc3ccccc32)nc2scc(-c3cccs3)c12 | inconclusive: 17.8 µM [inhibitor, single point] |  |
| COCCNC(=O)c1cccc(Nc2nc(-c3ccccc3)c3cc(Cl)ccc3n2)c1 | inconclusive: 50.1 µM [inhibitor, single point] |  |
| Cc1ccc2c(c1)S/C(=C\c1cccc[n+]1C)N2CCO |  | inconclusive: -2.62% [inhibitor] |
| CCN(CC)S(=O)(=O)c1ccc2[nH]cc(C(=O)NCCc3ccccc3)c(=O)c2c1 | inconclusive: 39.8 µM [inhibitor, single point] |  |
| CCN(Cc1ccccc1)C(=O)c1ccc2c(=O)n3c(nc2c1)CCC3 | inactive |  |
| COCC(=O)OCC(=O)N1N=C(c2ccc(Cl)cc2)CC1c1ccco1 (configuration not stated) | inconclusive: 501 µM [inhibitor, partial curve] |  |
| CCOC(=O)/C(=C/C=C1\Sc2cc(OCC)c(OCC)cc2N1CC)C(C)=O | inconclusive: 3.98 µM [inhibitor, single point] |  |
| COc1cc(CC(=O)Nc2ccc(Cl)c(C(F)(F)F)c2)cc(OC)c1OC | inconclusive: 5.62 µM [inhibitor, full curve, poor fit] |  |
| CC(C)c1ccccc1S(=O)(=O)c1cc(N)c2ncccc2c1[N+](=O)[O-] | inactive |  |
| COc1ccc(CC(=O)Nc2nc(-c3ccc(OC)c(OC)c3)cs2)cc1OC | inconclusive: 8.44 µM [inhibitor, single point] |  |

| Structure (SMILES) | Potency | activity change, negative = inhibition |
| --- | --- | --- |
| CC(C)NC(=O)COC(=O)c1ccc(Cl)c(S(=O)(=O)N2CCCC2)c1 | inconclusive: 20 µM [inhibitor, partial curve] |  |
| C=Cc1ccc(S(=O)(=O)O)cc1 | active: 14.1 µM |  |
| CCOc1ccccc1N1CCN(CC(=O)c2c(N)n(C)c(=O)n(C)c2=O)CC1 | inconclusive: 89.1 µM [inhibitor, partial curve, poor fit] |  |
| CN(C)C(=O)c1ccc(-c2ccc3ncnc(NCc4cccs4)c3c2)cc1 | active: 10 µM |  |
| N/C(=N\NC(=O)c1ccccc1Cl)c1cc2ccccc2oc1=O | inactive |  |
| CCN(CC)S(=O)(=O)c1ccc(OC)c(NC(=O)COc2ccccc2[N+](=O)[O-])c1 | inconclusive: 22.4 µM [inhibitor, single point] |  |
| CSc1nc(N)c2ncn([C@@H]3O[C@H](COP(=O)(O)OP(=O)(O)OP(=O)(O)O)[C@H](O)[C@H]3O)c2n1 | inactive |  |
| COc1cc(C)c(Cl)c(C)c1S(=O)(=O)NC1CC(C)(C)NC(C)(C)C1 | inconclusive: 44.7 µM [inhibitor, single point] |  |
| Cc1ccc(-c2noc(CSc3nnc(Cc4ccccc4)n3-c3ccc(Cl)cc3)n2)cc1 | inconclusive: 15.8 µM [inhibitor, partial curve, poor fit] |  |
| CCS(=O)(=O)C1=NN2C(=N)/C(=C\c3ccc(OC(=O)c4ccco4)c(Br)c3)C(=O)N=C2S1 | inactive |  |
| CSc1nccc(N2CCN(c3ccc(F)cc3)CC2)n1 | inconclusive: 31.6 µM [inhibitor, single point] |  |
| CC(NC(=O)CN1CCN(Cc2ccc(Cl)cc2)C1=O)c1ccc2c(c1)OCCO2 (configuration not stated) | inconclusive: 5.01 µM [inhibitor, single point] |  |
| Cc1ccc(CSCC(=O)N/N=C/c2ccc(OCC(=O)Nc3ccc(C)cc3)cc2)cc1 | inconclusive: 28.2 µM [inhibitor, partial curve] |  |
| CCN1CCN(c2cc(N3CCN(C(=O)c4ccco4)CC3)c3c4c(onc24)-c2ccccc2C3=O)CC1 | inactive |  |
| Cc1ccc2nc(-c3ccc(S(=O)(=O)N4CCCCC4)cc3)cn2c1 | inconclusive: 44.7 µM [inhibitor, single point] |  |
| NC(=O)NC(c1ccc(Cl)cc1)c1ccccc1Cl (configuration not stated) | inconclusive: 15.8 µM [inhibitor, single point] |  |
| NS(=O)(=O)c1ccc(NC(=S)N2CCN(Cc3ccc(Cl)c(Cl)c3)CC2)cc1 | inconclusive: 28.2 µM [inhibitor, partial curve] |  |
| COc1ccc(OCc2nnc(SCC(=O)N(C)Cc3ccccc3)n2N)cc1 | inconclusive: 17.8 µM [inhibitor, partial curve, poor fit] |  |
| FC(F)(F)c1cnc(C(c2ccccc2)c2ncn[nH]2)c(Cl)c1 (configuration not stated) | inactive |  |
| Cc1ccc(S(=O)(=O)N2[C@@H](c3ccccc3F)C(C(=O)O)=CC[C@H]2c2ccc(Cl)c(Cl)c2)cc1 | inactive |  |
| Cc1sc2ncn(CC(=O)NCc3ccco3)c(=O)c2c1-c1ccc(F)cc1 | inactive |  |

Structures from the list above containing an NH in an aromatic ring (4):

| Structure (SMILES) | Potency | activity change, negative = inhibition |
| --- | --- | --- |
| CCOc1cccc(C(=O)Nc2ccc3[nH]ncc3c2)c1 | inactive |  |
| O=c1[nH]c(CN2CCc3ccccc32)nc2scc(-c3cccs3)c12 | inconclusive: 17.8 µM [inhibitor, single point] |  |
| CCN(CC)S(=O)(=O)c1ccc2[nH]cc(C(=O)NCCc3ccccc3)c(=O)c2c1 | inconclusive: 39.8 µM [inhibitor, single point] |  |
| FC(F)(F)c1cnc(C(c2ccccc2)c2ncn[nH]2)c(Cl)c1 (configuration not stated) | inactive |  |
